The record followed here is article PMC9233852.

Chains of the proteins cited; added tags and fusions are not shown.
UniProt P40763, whole entry D427H: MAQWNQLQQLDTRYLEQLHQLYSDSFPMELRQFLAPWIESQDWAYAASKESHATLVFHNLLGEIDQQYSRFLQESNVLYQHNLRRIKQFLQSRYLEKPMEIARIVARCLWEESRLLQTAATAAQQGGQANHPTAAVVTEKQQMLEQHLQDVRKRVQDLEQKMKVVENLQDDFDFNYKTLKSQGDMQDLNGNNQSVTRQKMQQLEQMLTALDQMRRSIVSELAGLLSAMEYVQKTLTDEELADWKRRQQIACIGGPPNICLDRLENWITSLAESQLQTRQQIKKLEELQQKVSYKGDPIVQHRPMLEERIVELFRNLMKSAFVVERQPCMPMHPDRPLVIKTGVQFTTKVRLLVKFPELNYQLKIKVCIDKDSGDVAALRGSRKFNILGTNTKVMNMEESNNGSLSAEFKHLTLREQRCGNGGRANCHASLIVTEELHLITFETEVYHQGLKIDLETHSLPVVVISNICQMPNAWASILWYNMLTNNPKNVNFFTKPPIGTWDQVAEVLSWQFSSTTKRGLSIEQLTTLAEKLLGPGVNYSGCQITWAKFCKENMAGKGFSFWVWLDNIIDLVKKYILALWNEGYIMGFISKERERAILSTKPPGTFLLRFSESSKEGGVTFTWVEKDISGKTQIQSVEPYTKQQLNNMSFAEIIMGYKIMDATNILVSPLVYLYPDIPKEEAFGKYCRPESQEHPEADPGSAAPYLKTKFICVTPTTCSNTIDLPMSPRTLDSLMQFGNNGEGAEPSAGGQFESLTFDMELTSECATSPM
UniProt P40763, whole entry: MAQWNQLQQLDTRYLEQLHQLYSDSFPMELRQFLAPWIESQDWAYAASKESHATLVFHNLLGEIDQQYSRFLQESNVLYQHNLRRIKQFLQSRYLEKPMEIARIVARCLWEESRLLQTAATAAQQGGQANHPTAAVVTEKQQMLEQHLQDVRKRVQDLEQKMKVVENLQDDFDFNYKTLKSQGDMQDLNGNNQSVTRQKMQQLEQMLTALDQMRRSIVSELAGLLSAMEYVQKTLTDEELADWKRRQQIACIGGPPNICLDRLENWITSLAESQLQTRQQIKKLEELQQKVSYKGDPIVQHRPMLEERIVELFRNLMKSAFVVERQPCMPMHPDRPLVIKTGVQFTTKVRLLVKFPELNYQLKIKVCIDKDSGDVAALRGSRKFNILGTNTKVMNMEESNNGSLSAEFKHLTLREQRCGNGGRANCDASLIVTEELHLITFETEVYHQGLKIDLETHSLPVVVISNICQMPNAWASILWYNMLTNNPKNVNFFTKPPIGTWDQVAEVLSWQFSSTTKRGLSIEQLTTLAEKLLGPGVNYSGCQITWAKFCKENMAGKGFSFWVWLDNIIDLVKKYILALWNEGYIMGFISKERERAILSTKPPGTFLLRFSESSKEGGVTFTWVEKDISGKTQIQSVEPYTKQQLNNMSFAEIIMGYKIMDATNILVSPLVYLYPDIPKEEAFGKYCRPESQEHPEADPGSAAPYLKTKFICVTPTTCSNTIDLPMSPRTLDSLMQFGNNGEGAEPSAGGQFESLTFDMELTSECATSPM
UniProt P40763, whole entry F174A: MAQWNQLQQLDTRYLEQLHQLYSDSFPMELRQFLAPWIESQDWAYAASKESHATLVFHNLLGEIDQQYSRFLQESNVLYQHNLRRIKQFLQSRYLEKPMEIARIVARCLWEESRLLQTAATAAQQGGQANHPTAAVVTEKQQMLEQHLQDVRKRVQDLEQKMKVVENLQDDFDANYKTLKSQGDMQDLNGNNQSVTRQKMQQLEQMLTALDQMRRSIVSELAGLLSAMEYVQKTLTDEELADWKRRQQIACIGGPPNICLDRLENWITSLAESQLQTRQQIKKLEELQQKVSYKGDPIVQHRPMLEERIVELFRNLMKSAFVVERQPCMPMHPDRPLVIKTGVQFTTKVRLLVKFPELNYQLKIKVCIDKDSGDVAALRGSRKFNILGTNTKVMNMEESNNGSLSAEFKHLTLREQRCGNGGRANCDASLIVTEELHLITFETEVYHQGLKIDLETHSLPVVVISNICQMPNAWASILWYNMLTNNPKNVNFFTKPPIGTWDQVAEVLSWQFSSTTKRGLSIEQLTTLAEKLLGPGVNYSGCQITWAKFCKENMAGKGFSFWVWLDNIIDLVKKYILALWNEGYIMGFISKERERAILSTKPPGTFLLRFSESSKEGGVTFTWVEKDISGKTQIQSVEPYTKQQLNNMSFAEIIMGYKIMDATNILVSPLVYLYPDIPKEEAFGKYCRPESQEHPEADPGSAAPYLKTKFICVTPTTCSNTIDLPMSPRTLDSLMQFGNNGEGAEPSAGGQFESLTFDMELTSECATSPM

In data set [1] the target is STAT3-D427H-GFP (UniProt P40763). In words: EMSA. The conditions noted are these: EMSA: 4 µl whole cell extract + 8 µl EMSA buffer (composition not given) with poly(dI-dC), 1 ng probe, 15 min (RT in competition assay; chase 10 min on ice), protein in an extract, protein details: GFP fusion, label: 33P (Klenow end-fill). For orientation: In EMSA bound probe runs differently from free probe, usually more slowly.

Data set [2] addresses STAT3-D427H-SNAP (UniProt P40763). Briefly: EMSA. Particulars: EMSA: 4 µl whole cell extract + 8 µl EMSA buffer (composition not given) with poly(dI-dC), 1 ng probe, 15 min (RT in competition assay; chase 10 min on ice), protein in an extract, protein details: SNAP fusion, label: 33P (Klenow end-fill).
Data set [3] deals with STAT3-WT-GFP (UniProt P40763). Briefly: EMSA. Particulars: EMSA: 4 µl whole cell extract + 8 µl EMSA buffer (composition not given) with poly(dI-dC), 1 ng probe, 15 min (RT in competition assay; chase 10 min on ice), protein in an extract, protein details: GFP fusion, label: 33P (Klenow end-fill).
Data set [4] deals with STAT3-WT-SNAP (UniProt P40763). In words: EMSA. Particulars: EMSA: 4 µl whole cell extract + 8 µl EMSA buffer (composition not given) with poly(dI-dC), 1 ng probe, 15 min (RT in competition assay; chase 10 min on ice), protein in an extract, protein details: SNAP fusion, label: 33P (Klenow end-fill).
Data set [5] deals with STAT3-F174A-GFP (UniProt P40763). In words: EMSA. The conditions noted are these: IL-6 or IFNg stimulated, increased, similar to D427H; EMSA: 4 µl whole cell extract + 8 µl EMSA buffer (composition not given) with poly(dI-dC), 1 ng probe, 15 min (RT in competition assay; chase 10 min on ice); protein in an extract; protein details: GFP fusion; label: 33P (Klenow end-fill).
The target in data set [6] is STAT3-F174A-SNAP (UniProt P40763). In words: EMSA. The conditions noted are these: IL-6 or IFNg stimulated, increased, similar to D427H; EMSA: 4 µl whole cell extract + 8 µl EMSA buffer (composition not given) with poly(dI-dC), 1 ng probe, 15 min (RT in competition assay; chase 10 min on ice); protein in an extract; protein details: SNAP fusion; label: 33P (Klenow end-fill).

In data set [7] the target is STAT3-D427H-GFP (UniProt P40763). In words: competition with a labelled probe. Particulars: IL-6, 750x unlabelled M67 chase 10 min: complex resists, reduced dissociation; EMSA: 4 µl whole cell extract + 8 µl EMSA buffer (composition not given) with poly(dI-dC), 1 ng probe, 15 min (RT in competition assay; chase 10 min on ice); protein in an extract; protein details: GFP fusion; label: 33P (Klenow end-fill).

Data set [8] has as its target STAT3-D427H-SNAP (UniProt P40763). In words: competition with a labelled probe. The conditions noted are these: IL-6, 750x unlabelled M67 chase 10 min: complex resists, reduced dissociation; EMSA: 4 µl whole cell extract + 8 µl EMSA buffer (composition not given) with poly(dI-dC), 1 ng probe, 15 min (RT in competition assay; chase 10 min on ice); protein in an extract; protein details: SNAP fusion; label: 33P (Klenow end-fill).

Data set [9] addresses STAT3-WT-GFP (UniProt P40763). In words: competition with a labelled probe. Particulars: IL-6, 750x unlabelled M67 chase 10 min: complete loss of labelled complex; EMSA: 4 µl whole cell extract + 8 µl EMSA buffer (composition not given) with poly(dI-dC), 1 ng probe, 15 min (RT in competition assay; chase 10 min on ice); protein in an extract; protein details: GFP fusion; label: 33P (Klenow end-fill).

For data set [10], the target named is STAT3-WT-SNAP (UniProt P40763). Briefly: competition with a labelled probe. The conditions noted are these: IL-6, 750x unlabelled M67 chase 10 min: complete loss of labelled complex; EMSA: 4 µl whole cell extract + 8 µl EMSA buffer (composition not given) with poly(dI-dC), 1 ng probe, 15 min (RT in competition assay; chase 10 min on ice); protein in an extract; protein details: SNAP fusion; label: 33P (Klenow end-fill).

Setting [11] is: IFNg stimulated, increased tetramer and dimer vs WT.
Setting [12] is: IFNg stimulated, weak, predominantly dimer.
[13] abbreviates: IL-6 or IFNg stimulated, increased vs WT.

The exact form of at least one protein or probe is not confirmed. Where cells or extracts were used, other partners may take part. For some of these results: A weaker result is weaker than the reference pair of the same experiment.

Regarding “TTTTCGTTTACCCCAAATTGACGGATTTACCCCAAC (double strand) [2xnonGAS]”, the binding result in [1] (IFNg stimulated, weak binding) was “binds more weakly”; in data set [2] (IFNg stimulated, weak binding), “binds more weakly”.

On to “TTTTCGTTTCCCCGAAATTGACGGATTTACCCCAAC (double strand) [GAS-nonGAS]”, for which the binding result in data set [1] (setting [11]) was “binds”; in [2] (setting [11]), “binds”; in data set [3] (setting [12]) it was “binds more weakly”; in data set [4] (setting [12]), “binds more weakly”.

As to “TTTTCGACATTTCCCGTAAATCTG (double strand) [M67 (SIE/GAS)]”, the binding result in [1] (setting [13]), in data set [2] (setting [13]), in data set [5], in [6], in data set [3] (IL-6 or IFNg stimulated) and in [4] (IL-6 or IFNg stimulated) was “binds” throughout. The binding result in data set [7], in [8], in [9] and in data set [10] was “binds” each time.
